No constants are given. Whether binding was seen depends on the method and setting. Binding seen in cells or lysates may run through a third protein. Binding can be weak; no strength is given.
Assays:
[1] = target: T1, BAC48988 (DctA) (Bradyrhizobium diazoefficiens USDA 110) (UniProt Q89NW0); assay: split reporter
T1 sequence: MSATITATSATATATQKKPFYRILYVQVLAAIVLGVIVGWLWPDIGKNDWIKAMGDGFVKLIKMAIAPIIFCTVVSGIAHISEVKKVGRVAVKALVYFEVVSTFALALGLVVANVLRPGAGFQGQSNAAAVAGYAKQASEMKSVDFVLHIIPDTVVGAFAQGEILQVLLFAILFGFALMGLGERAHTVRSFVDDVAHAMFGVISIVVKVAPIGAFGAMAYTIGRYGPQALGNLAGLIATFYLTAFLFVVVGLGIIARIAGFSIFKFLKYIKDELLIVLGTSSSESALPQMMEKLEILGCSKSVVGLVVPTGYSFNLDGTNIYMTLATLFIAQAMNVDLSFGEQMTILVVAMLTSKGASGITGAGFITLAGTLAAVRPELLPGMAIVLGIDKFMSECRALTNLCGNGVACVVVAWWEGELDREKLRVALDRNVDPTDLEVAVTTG

[2] = target: T2, BAC49563 (DctA) (Bradyrhizobium diazoefficiens USDA 110) (UniProt Q89M95); assay: split reporter
T2 sequence: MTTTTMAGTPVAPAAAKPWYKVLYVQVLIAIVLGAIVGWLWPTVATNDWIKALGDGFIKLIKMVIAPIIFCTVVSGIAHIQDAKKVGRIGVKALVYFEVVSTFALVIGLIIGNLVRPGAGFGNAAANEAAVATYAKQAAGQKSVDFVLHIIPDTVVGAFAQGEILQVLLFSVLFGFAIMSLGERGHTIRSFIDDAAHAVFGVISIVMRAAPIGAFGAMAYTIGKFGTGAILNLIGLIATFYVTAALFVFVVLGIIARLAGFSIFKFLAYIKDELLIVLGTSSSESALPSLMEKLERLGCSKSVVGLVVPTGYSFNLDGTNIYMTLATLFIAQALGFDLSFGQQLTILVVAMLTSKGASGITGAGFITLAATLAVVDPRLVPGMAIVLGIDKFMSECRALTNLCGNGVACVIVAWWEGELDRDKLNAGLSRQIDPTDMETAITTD

Row | Substance | binding [1] | binding [2]
1 | Glyma.02G208700 (SGF14g) (Glycine max) | binds | binds
2 | Glyma13G158600 (from UniProt I1LZP7) |  | binds
3 | Glyma.14G176900 (SGF14k) (Glycine max) | binds | binds
